{"source": "PubChem BioAssay AID504791, Drosophila RNAi Screening Center | 2011", "assay": "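Genes whose knock-down strengthens or weakens small-RNA reporter silencing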 (primary screen)", "cells": "Drosophila S2-derived reporter cells", "reagent": "long dsRNA against Drosophila genes, about 150-250 ng dsRNA per well (siRNA assay); about 80-120 ng (miRNA assay)", "timing": "about 5 days (siRNA assay); about 4 days (miRNA assay)", "conditions": "copper sulfate induction of reporters: 25 µM (siRNA assay); 200 mM stated (miRNA assay), 1-2 days before reading", "measurement": "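Per-well ratio of Renilla over firefly light, expressed relative to that plate's average ratio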", "rule for the call": "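First-pass picks had plate-scaled ratios over 1.5 for the siRNA assay, over 1.6 for the miRNA assay, or under 0.6; two distinct dsRNAs had to score alike on retest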", "note": "The deposit covers about 23,000 reagents; shown is a random part of those with a known target gene and a result. Over the whole deposit, 199 (0.86%) were called active. 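Plate-scaled ratios behind the calls are not deposited; printed light signals are raw; many rows marked increased or decreased are still called inactive.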 The numbers tell different reagents against one gene apart. Names joined by + are all predicted targets of the reagent. Not stated in the record: the direction of the score."}
{"gene":"Rbp4","dsRNA no.":1,"stable assay Renilla, run 1 (luminescence)":7218,"stable assay firefly, run 1 (luminescence)":3.91e5,"Outcome":"inactive"}
{"gene":"CG12104","dsRNA no.":1,"stable assay Renilla, run 1 (luminescence)":5812,"stable assay firefly, run 1 (luminescence)":2.69e5,"Outcome":"inactive"}
{"gene":"CG32086","dsRNA no.":1,"stable assay Renilla, run 1 (luminescence)":5975,"stable assay firefly, run 1 (luminescence)":3.42e5,"Outcome":"inactive"}
{"gene":"Shmt","dsRNA no.":1,"stable assay Renilla, run 1 (luminescence)":5147,"stable assay firefly, run 1 (luminescence)":2.73e5,"Outcome":"inactive"}

Part of the list above, reformatted.
{"gene": "CG12104", "dsRNA no.": 1, "stable assay Renilla, run 1 (luminescence)": 5812, "stable assay firefly, run 1 (luminescence)": 2.69e5, "Outcome": "inactive"}
{"gene": "CG32086", "dsRNA no.": 1, "stable assay Renilla, run 1 (luminescence)": 5975, "stable assay firefly, run 1 (luminescence)": 3.42e5, "Outcome": "inactive"}

The results go on:
{"gene":"eff","dsRNA no.":1,"stable assay Renilla, run 1 (luminescence)":6235,"stable assay firefly, run 1 (luminescence)":5.44e5,"Outcome":"inactive"}
{"gene":"Hsp68","dsRNA no.":1,"stable assay Renilla, run 1 (luminescence)":7166,"stable assay firefly, run 1 (luminescence)":4.17e5,"Outcome":"inactive"}
{"gene":"CG42726 + CG42727","dsRNA no.":1,"stable assay Renilla, run 1 (luminescence)":9135,"stable assay firefly, run 1 (luminescence)":5.49e5,"Outcome":"inactive"}
{"gene":"CG13002","dsRNA no.":1,"stable assay Renilla, run 1 (luminescence)":5198,"stable assay firefly, run 1 (luminescence)":4.98e5,"Outcome":"inactive"}
{"gene":"CG33679","dsRNA no.":1,"stable assay Renilla, run 1 (luminescence)":5559,"stable assay firefly, run 1 (luminescence)":4.13e5,"Outcome":"inactive"}
{"gene":"corto","dsRNA no.":1,"stable assay Renilla, run 1 (luminescence)":6840,"stable assay firefly, run 1 (luminescence)":4.18e5,"Outcome":"inactive"}
{"gene":"corto","dsRNA no.":2,"stable assay Renilla, run 1 (luminescence)":9299,"stable assay firefly, run 1 (luminescence)":5.16e5,"Outcome":"inactive"}
{"gene":"corto","dsRNA no.":3,"stable assay Renilla, run 1 (luminescence)":5638,"stable assay firefly, run 1 (luminescence)":3.99e5,"Outcome":"inactive"}
